Source: patent EP0693071B1, “NEW CARBOXYLIC-ACID ESTERS OF 2-AMINO-7-(1,3-DIHYDROXY-2-PROPOXYMETHYL)PURINE, THE PREPARATION OF SUCH ESTERS AND THEIR USE” (HOECHST AKTIENGESELLSCHAFT, priority 1993, dated 1994)
At least one read-out could not be matched to a standard name with certainty.

Test system: Herpes simplex 1 Virus (HSV-1)
Assay: Activity against systemic HSV-1 infection in NMRI mice, oral treatment
Format: in vivo, NMRI-Mäuse
From the text: Wirkung gegen systemische Herpes simplex 1 Virus (HSV-1) Infektion: NMRI-Mäuse, spezifisch pathogenfrei, im Gewicht von 15 bis 18 g wurden intraperitoneal mit HSV-1 infiziert und anschließend mit den erfindungsgemäßen Verbindungen oral therapiert. Die Behandlung erfolgte erstmals 3 Stunden nach der Infektion und wurde zweimal täglich über 4 Tage fortgesetzt. Der Behandlungserfolg wurde anhand des Krankheitsverlaufes und der Überlebensrate gegenüber der unbehandelten Infektionskontrolle bestimmt. Letztere erhielt anstelle der erfindungsgemäßen Verbindungen physiologische Kochsalzlösung appliziert. Die Beobachtungszeit betrug zwei Wochen. Tabelle 1 zeigt die Ergebnisse dieser Untersuchung.

Nc1ncc2c(ncn2COC(COC(=O)Cc2ccccc2)COC(=O)Cc2ccccc2)n1 [Beispiel 12, 2-Amino-7-[(1,3-bis-phenylacetoxy-2-propoxy)methyl]purin]
mittlere Überlebenszeit (Tage) (Dosierung 9 x 10 µmol/kg): 9,5 ± 0,7 Tage
Überlebende/ Gruppegröße (Dosierung 9 x 10 µmol/kg): 3/5
mittlere Überlebenszeit (Tage) (Dosierung 9 x 30 µmol/kg): 9,0 Tage
Überlebende/ Gruppegröße (Dosierung 9 x 30 µmol/kg): 4/5
mittlere Überlebenszeit (Tage) (Dosierung 9 x 100 µmol/kg): 13,0 Tage
Überlebende/ Gruppegröße (Dosierung 9 x 100 µmol/kg): 4/5
